Data published in paper PMC11390745.
These are yes or no findings as the source states them, for the method shown. In cells and extracts the contact can be indirect. Some binding calls cover weakened binding; strength is not graded here. For part of these data: Where a sequence is shown, tags or fusion partners need not be part of it.

Chains of the proteins cited; added tags and fusions are not shown.
UniProt Q13309: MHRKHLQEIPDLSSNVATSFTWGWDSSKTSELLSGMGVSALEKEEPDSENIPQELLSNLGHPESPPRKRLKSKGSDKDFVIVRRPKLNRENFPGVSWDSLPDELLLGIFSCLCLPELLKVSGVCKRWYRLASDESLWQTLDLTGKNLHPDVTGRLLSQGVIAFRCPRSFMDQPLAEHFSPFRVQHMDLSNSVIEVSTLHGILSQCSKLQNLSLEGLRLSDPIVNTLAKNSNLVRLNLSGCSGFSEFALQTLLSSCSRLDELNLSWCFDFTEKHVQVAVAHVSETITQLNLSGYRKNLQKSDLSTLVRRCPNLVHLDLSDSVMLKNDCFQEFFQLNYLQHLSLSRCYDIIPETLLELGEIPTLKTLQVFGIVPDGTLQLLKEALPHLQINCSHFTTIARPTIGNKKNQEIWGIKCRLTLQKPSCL
UniProt P31749: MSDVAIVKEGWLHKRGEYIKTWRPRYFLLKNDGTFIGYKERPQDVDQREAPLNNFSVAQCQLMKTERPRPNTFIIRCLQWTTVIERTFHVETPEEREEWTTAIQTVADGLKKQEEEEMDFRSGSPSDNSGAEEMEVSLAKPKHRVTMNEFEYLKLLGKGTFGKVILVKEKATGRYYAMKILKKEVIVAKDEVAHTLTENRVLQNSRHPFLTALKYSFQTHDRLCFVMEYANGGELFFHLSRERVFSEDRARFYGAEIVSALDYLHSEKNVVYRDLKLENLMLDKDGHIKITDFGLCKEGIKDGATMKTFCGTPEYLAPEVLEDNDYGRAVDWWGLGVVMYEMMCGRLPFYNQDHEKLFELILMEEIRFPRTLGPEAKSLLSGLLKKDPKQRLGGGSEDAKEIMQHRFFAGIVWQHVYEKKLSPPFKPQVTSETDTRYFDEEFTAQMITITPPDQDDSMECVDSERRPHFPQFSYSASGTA
UniProt O15379: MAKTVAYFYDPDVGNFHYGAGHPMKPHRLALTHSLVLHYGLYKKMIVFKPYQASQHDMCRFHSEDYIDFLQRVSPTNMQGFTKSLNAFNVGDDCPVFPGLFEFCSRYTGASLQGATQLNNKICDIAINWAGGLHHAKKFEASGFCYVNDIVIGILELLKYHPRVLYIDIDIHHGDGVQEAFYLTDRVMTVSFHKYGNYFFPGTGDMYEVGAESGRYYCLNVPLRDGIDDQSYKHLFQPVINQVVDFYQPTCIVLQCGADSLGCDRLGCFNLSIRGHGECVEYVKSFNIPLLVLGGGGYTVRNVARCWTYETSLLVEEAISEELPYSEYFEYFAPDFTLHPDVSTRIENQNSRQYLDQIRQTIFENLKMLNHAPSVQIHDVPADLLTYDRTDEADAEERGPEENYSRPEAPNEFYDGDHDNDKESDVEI

How the values were obtained:
Experiment in all cases: co-IP; ectopically expressed tagged proteins, cell line not stated for these panels; IP lysis buffer, antibody 2 h at 4 °C, protein A/G magnetic beads overnight at 4 °C, western blot; in Fig. 5D cells treated with SC79 (10 μM) and CQ (10 μM) for 24 h
[1] = molecular target: Flag-tagged wild-type SKP2 (UniProt Q13309)
[2] = molecular target: T1, Flag-tagged LHPP (UniProt Q9H008)
T1 sequence: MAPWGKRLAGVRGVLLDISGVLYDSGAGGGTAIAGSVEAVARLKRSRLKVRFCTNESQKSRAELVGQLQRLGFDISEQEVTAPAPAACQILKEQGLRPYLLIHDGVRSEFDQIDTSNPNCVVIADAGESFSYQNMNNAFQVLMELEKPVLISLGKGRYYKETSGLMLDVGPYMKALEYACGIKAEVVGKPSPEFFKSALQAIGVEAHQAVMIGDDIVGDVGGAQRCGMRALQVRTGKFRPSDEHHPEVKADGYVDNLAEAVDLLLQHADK

[3] = molecular target: Myc-tagged AKT1 (UniProt P31749)

## Myc-tagged AKT1 (from UniProt P31749 1-480) (enzyme)
[1]
  binding: binds

## HA-tagged HDAC3 (from UniProt O15379 1-428) (enzyme)
[2]
  binding: binds

B1: Flag-tagged LHPP (enzyme, UniProt Q9H008 1-270)
chain: T1 sequence
[3]
  binding: binds
